For one molecule, binding results are on record in PMC8754431.

Chains of the proteins cited; added tags and fusions are not shown.
UniProt E9PY46: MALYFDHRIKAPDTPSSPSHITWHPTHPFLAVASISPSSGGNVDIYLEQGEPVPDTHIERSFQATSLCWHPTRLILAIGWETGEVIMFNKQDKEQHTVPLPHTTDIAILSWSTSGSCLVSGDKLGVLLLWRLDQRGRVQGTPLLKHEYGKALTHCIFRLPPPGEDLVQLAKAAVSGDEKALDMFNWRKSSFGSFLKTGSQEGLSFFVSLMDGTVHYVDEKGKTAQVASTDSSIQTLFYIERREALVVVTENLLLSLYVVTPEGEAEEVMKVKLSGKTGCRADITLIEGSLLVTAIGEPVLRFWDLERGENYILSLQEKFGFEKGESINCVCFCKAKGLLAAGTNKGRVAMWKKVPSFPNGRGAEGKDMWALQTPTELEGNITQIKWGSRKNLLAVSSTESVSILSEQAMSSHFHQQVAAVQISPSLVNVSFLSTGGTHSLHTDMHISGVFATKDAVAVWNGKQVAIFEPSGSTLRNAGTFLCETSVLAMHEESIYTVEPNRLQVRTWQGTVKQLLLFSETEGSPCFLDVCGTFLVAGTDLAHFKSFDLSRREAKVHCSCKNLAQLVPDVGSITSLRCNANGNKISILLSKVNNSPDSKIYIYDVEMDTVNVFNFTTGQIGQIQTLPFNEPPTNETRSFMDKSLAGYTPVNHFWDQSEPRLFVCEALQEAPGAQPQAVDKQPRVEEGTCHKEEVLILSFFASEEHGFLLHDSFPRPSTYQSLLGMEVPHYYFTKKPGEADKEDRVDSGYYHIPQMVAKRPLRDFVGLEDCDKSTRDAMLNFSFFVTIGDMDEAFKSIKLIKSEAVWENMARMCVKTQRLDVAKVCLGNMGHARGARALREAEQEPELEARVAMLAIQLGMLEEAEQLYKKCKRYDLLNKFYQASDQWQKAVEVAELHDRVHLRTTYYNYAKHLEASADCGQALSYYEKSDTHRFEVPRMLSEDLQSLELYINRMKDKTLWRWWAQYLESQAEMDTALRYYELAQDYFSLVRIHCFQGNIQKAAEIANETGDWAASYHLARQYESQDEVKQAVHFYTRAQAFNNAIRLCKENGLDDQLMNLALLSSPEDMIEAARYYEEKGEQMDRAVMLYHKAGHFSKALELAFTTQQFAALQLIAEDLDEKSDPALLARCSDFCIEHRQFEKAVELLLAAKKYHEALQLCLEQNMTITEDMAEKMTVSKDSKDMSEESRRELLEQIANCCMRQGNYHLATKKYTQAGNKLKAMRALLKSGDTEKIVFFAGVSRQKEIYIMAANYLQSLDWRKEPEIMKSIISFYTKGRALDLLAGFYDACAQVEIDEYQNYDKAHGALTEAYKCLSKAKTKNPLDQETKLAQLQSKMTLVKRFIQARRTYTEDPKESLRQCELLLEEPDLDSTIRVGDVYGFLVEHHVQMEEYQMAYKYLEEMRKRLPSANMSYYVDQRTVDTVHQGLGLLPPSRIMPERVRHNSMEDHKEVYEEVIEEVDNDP

The target of this test is IFT140 (mouse (endogenous in E11.5 embryos)) (UniProt E9PY46). In words: co-IP; endogenous IFT140 immunoprecipitated from E11.5 Wdr35+/+ and Wdr35-/- mouse embryo lysates, immunoblots of IFT-A subunits.

These are yes or no findings as the source states them, for the method shown. Binding seen in cells or lysates may run through a third protein. Some entries that bind do so weakly or less than the wild type.

B1: IFT43 (protein, UniProt Q9DA69 1-206)
chain: MDDLLDLGEERRRSSATSGAKMGRRAHQESTQAENYLNSKNSSLTQTGEAPPPKPPRRQGGWADDSMKMAKLGKKVSEEMEDHRLRQQNLMGSDDDDIPVIPDLEDVQEEDFVLQVASPPSIQVNRVMTYRDLDNDLMKYSAFQTLDGEIDLKLLTKVLAPEHEVREDDVGWDWDHLYTEVSSELLTEWDLLRAEKEDPVGPSRYI
For the molecule B1, the binding entry was “binds”.
